The other results are listed elsewhere or left out.

Protein sequences, listed by entry. Tags and fused reporters are not part of them. Lines headed by an entry give the natural chain unless they say otherwise; changes in a name come on top.
UniProt Q96CM8: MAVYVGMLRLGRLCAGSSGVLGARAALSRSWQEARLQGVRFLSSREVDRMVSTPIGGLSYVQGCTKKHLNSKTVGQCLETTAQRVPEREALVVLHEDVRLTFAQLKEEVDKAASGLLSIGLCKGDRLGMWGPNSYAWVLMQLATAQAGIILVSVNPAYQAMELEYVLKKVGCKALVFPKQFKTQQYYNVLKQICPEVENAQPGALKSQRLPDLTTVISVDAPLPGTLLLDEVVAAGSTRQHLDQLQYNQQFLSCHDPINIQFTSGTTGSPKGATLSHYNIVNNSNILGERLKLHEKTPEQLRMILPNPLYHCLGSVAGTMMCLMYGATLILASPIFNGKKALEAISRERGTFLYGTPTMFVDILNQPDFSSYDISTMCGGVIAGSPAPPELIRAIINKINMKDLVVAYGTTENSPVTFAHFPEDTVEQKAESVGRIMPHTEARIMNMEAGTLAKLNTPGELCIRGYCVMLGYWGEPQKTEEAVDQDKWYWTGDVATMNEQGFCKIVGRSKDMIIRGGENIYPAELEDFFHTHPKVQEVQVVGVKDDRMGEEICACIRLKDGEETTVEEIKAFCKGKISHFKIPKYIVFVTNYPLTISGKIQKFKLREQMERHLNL
UniProt P14621: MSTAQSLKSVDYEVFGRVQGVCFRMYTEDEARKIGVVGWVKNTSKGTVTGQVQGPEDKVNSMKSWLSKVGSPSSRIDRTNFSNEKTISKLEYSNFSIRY
UniProt Q96QU6: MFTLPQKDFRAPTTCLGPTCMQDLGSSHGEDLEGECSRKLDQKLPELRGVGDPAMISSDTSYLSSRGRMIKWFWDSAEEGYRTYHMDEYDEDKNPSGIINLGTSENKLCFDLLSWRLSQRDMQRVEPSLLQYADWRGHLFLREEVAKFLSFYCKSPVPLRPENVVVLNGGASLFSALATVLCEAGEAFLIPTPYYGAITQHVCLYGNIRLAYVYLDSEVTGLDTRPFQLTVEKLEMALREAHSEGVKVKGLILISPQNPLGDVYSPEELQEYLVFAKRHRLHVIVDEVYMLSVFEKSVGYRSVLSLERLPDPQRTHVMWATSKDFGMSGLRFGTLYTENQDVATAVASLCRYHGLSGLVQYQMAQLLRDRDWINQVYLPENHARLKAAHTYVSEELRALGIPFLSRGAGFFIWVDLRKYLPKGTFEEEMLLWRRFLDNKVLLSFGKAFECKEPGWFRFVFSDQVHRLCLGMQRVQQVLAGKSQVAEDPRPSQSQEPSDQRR
UniProt Q5VST6: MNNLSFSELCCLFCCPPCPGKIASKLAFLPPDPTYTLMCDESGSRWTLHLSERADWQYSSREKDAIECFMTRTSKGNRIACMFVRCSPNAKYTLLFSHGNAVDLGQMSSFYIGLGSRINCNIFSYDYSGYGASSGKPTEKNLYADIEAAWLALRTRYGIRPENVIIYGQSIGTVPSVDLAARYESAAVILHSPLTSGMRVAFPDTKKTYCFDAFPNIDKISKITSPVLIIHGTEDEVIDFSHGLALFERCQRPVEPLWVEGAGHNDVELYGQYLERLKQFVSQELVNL
UniProt Q96M93: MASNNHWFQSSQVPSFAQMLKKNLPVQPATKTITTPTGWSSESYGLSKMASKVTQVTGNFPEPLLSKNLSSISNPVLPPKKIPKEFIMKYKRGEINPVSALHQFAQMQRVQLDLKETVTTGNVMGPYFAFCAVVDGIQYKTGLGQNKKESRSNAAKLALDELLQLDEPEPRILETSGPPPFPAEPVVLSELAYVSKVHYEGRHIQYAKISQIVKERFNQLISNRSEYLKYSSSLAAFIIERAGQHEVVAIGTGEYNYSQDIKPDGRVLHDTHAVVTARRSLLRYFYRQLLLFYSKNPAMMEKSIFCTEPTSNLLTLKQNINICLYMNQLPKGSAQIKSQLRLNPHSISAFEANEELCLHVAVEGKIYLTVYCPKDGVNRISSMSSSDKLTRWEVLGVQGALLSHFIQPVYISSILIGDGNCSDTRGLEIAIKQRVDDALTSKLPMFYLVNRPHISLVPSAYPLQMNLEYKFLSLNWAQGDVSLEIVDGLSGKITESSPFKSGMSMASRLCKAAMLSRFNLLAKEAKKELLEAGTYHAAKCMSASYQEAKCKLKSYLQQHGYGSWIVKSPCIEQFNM
UniProt P24666: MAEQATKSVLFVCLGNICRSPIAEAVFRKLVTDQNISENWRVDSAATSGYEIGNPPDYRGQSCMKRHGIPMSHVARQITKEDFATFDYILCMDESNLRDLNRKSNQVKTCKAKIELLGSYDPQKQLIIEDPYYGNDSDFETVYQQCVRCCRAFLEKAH
UniProt Q8IZY2: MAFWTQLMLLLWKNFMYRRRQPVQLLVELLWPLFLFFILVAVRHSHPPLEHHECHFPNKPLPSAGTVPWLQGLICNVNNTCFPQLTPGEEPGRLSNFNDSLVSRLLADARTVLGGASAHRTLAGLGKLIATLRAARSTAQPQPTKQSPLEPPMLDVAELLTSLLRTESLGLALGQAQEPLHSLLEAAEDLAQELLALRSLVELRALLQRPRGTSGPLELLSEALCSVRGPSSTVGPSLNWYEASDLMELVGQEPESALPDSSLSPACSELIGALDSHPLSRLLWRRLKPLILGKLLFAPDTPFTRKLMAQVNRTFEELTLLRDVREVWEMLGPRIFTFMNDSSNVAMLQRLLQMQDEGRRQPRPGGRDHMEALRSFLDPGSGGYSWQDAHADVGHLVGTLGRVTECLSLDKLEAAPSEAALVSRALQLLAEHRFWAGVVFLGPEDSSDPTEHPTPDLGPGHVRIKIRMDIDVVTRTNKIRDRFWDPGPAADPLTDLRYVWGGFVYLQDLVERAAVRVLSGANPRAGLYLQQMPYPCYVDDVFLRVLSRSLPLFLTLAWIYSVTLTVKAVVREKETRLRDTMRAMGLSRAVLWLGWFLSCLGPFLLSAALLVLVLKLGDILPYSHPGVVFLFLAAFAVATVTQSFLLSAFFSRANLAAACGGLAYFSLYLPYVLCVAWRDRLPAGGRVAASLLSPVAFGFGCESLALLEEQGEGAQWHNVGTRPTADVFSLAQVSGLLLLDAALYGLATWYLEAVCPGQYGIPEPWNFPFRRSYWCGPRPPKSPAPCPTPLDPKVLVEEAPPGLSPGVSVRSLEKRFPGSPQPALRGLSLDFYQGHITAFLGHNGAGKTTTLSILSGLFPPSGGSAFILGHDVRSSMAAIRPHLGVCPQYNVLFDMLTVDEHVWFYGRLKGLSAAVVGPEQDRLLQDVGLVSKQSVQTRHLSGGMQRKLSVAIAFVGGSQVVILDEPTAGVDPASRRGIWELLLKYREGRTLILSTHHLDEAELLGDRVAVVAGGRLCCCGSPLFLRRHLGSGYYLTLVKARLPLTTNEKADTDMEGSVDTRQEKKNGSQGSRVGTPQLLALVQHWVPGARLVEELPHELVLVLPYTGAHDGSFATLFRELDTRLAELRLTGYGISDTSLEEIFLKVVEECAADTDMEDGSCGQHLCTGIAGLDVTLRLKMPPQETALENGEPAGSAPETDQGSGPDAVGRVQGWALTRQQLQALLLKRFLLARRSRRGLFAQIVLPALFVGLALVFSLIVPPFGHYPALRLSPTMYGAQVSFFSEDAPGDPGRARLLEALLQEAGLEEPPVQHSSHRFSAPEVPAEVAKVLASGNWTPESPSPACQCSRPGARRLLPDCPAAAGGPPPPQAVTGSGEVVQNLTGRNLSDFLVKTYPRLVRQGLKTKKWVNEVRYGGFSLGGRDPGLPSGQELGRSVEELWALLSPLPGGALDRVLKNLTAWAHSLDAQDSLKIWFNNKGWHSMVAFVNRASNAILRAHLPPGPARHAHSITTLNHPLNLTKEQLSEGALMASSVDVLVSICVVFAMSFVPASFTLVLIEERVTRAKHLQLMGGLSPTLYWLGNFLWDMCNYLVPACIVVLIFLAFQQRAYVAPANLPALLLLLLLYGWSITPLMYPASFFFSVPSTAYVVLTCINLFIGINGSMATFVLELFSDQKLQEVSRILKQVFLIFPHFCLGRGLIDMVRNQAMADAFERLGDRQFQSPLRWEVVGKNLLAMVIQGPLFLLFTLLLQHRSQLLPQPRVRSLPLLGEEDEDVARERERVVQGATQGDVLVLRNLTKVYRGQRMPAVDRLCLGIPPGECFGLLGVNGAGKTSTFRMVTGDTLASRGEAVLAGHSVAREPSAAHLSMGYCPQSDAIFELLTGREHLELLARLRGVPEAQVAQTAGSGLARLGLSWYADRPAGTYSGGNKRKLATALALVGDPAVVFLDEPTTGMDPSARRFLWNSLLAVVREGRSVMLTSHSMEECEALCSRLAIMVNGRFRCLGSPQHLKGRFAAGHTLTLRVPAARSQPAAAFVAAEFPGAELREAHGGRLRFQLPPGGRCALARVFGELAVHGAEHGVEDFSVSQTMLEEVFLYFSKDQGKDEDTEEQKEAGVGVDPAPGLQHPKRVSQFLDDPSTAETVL
UniProt Q8TDG2: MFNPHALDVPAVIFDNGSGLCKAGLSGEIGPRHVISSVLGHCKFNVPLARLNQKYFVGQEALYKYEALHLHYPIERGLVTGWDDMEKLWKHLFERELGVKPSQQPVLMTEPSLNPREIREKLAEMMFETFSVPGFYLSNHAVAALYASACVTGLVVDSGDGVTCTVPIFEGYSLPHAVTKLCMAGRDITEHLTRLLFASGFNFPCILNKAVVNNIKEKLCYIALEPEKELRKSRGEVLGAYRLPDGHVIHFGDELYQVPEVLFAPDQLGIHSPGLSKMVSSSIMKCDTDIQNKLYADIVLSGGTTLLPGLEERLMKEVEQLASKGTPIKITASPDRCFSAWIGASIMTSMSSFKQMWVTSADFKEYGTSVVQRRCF
UniProt Q6JQN1: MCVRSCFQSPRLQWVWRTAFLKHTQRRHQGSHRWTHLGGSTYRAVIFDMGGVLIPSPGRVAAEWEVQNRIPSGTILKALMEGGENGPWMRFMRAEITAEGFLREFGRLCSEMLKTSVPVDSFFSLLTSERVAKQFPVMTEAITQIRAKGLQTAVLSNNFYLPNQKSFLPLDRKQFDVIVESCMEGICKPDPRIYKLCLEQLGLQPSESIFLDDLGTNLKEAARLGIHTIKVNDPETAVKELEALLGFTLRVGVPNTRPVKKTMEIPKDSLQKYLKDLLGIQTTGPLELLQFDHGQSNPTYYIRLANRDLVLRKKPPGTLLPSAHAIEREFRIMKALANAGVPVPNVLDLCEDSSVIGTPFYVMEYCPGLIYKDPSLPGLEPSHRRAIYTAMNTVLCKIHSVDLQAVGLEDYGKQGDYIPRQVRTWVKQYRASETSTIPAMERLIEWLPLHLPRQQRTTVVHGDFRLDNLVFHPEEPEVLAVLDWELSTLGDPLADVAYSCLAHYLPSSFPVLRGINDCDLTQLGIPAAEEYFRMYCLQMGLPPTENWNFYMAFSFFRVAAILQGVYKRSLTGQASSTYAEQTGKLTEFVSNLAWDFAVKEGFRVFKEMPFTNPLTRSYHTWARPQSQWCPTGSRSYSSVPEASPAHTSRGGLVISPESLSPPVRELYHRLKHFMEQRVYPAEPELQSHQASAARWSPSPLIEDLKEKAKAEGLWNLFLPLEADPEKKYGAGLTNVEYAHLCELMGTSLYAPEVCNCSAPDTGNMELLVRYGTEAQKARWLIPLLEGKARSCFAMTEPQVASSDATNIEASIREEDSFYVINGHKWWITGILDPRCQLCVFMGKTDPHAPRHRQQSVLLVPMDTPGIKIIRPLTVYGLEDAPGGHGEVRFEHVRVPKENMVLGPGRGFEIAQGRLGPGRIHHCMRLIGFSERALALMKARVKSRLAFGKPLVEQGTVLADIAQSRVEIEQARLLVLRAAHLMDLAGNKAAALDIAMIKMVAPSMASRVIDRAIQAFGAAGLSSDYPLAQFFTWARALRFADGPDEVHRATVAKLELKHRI
UniProt Q8TB40: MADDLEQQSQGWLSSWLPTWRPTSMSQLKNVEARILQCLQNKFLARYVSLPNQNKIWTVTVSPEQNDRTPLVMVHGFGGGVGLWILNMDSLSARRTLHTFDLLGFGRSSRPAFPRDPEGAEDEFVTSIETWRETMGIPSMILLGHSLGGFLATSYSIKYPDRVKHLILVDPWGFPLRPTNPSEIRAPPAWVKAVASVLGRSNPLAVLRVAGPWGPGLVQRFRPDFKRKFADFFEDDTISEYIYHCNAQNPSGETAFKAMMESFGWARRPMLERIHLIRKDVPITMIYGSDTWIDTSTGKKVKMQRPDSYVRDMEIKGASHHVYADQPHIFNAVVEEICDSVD
UniProt Q8NFV4: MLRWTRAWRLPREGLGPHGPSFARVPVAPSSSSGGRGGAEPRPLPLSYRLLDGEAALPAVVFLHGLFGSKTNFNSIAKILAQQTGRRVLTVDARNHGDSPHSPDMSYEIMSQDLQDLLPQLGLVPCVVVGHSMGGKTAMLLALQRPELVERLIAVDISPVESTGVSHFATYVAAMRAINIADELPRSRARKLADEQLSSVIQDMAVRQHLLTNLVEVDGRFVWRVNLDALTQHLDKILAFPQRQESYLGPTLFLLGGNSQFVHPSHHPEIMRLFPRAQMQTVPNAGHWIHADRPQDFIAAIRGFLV

Compound in this experiment: CCN(CC)Cc1ccc2cc(COC(=O)Nc3ccc(C(=O)NO)cc3)ccc2c1 [givinostat]
Put plainly: log2 fold change, soluble protein after heating vs DMSO (PISA); higher = thermal stabilisation; K562 cells, 10 uM, 30 min; active = over 0.2 and 3.5 SD of the protein, either way, in both replicates (recomputed). The procedure, abridged:
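Aliquots of K562 cells (2×10^6 cells/mL) treated with 10 μM compound for 30 min were heated for 3 min over 48°C-58°C. After pooling and extraction in PBS with 0.5% NP-40 at 4°C, soluble protein from a 21,000xg, 90 min spin was quantified by TMTpro 16plex LC-MS/MS with channel sums equalised. Thermal stability is expressed against control samples, from duplicates, as a log2 fold change.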
Regarding ACSF2 isoform 2 (UniProt Q96CM8), the log2 fold change was inactive: -0.097.
As for ACYP2 (UniProt P14621), the figure is inactive: -0.129.
As for ACTG1 (UniProt I3L4N8), the figure is inactive: 0.154; as for ACTR3B (UniProt Q9P1U1), inactive: 0.147.
In the case of ACCS (UniProt Q96QU6), the log2 fold change is inactive: 0.073.
As for ABHD17B (UniProt Q5VST6), the figure is inactive: -0.091; as for ACTC1 (UniProt P68032), inactive: -0.037.
As for ABCB5 (UniProt Q2M3G0), the figure is inactive: -0.007; as for ADAD1 (UniProt Q96M93), inactive: 0.134; as for ABCD1 (UniProt P33897), inactive: 0.085.
As for ACP1 (UniProt P24666), the figure is inactive: 0.076; as for ACTB (UniProt E7EVS6), inactive: -0.169.
Take ABCE1 (UniProt H0Y990): the log2 fold change was inactive: -0.063.
In the case of ACTB, A0A2R8YEA7, the log2 fold change was inactive: -0.014.
For ACTN1 (UniProt H9KV75), the log2 fold change was inactive: 0.122.
Consider ABCA7 (UniProt Q8IZY2), for which the log2 fold change was inactive: 0.123.
The value for ACTRT1 (UniProt Q8TDG2) was inactive: 0.1; that for ACAD10 isoform 5 (UniProt Q6JQN1) was inactive: 0.028.
For the target ACVR1 (UniProt Q04771), the log2 fold change is inactive: 0.031.
As for ABHD4 (UniProt Q8TB40), the figure is inactive: 0.005; as for ABHD11 (UniProt Q8NFV4), inactive: 0.02; as for ACOX3 (UniProt O15254), inactive: -0.01.
Take ADAM8 (UniProt P78325): the log2 fold change is inactive: -0.135.
The value for ABHD3 (UniProt Q8WU67) was inactive: 0.108.

The values above are taken from the supplement of paper PMC10849652.
